About 210 (10%) of roughly 2,100 compounds were called active. Inconclusive means that the source gave no clear call. Such entries were picked first, then a sample of the others. The call rests on the fitted dose curve; in most records, active means well fitted inhibition curve with a large enough effect; inconclusive means small, poorly fitted or top-dose-only effect, or effect the other way; inactive means no such curve, though single readings can be large or run the other way. A potency beside an inconclusive call is a rough fit, not a confirmed value.
experiment: IN Cell qHTS Assay for Inhibitors of the mTORC1 Signaling Pathway in MEF (Tsc2-/-, p53-/-) Cells: Sytravon; conditions: phospho-rpS6 immunofluorescence, 24 h; series mostly up to 38.3 µM; further: nearly all actives have a fitted effect of over 60% in size
Outline: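 Tsc2-/-, p53-/- MEFs (empty-vector) treated with compound 24 h at 37 degree Celsius, then fixed and stained for phospho-rpS6 Ser235/236 (Alexa-488) plus Hoechst. Reported as % positive cells, thresholds set against 7.5 nM rapamycin and DMSO wells.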
Potency means the concentration at half of the fitted maximal effect.

| Structure (SMILES) | Potency |
| --- | --- |
| COc1ccc(/C=C/C(=O)Nc2nc3n(n2)C(c2ccccc2)C=C(c2ccc(Cl)cc2)N3)cc1 (centres undefined) | inconclusive: 5.21 µM [falling, single point] |
| Cc1oc2ccc(O)c(CN3CCCCC3)c2c1C(=O)Nc1cccc(C(F)(F)F)c1 | inconclusive: 16.5 µM [falling, single point] |
| CN(C)c1ccc(C2C=C(c3ccccc3)Nc3nnnn32)cc1 (centres undefined) | inconclusive: 7.36 µM [falling, single point] |
| CSc1nc(Nc2ccc(F)cc2)cc(-c2ccccc2)n1 | inconclusive: 9.27 µM [falling, partial curve, poor fit] |
| CCC(=O)C1=C(c2ccc(F)cc2)N(C(=O)CC)n2cnnc2S1 | inconclusive: 7.36 µM [falling, single point] |
| CCOc1cc(C#N)c(NC(=O)Cn2nnc(-c3ccc(C)cc3)n2)cc1OCC | inconclusive: 26.1 µM [falling, partial curve, poor fit] |
| CCCCN1C(=O)C(O)(CC(=O)c2ccc(C(C)(C)C)cc2)c2ccccc21 (centres undefined) | inconclusive: 23.3 µM [falling, single point] |
| CCOC(=O)c1c(NC(=O)c2nc(S(C)(=O)=O)ncc2Cl)sc(C(C)=O)c1C | active: 5.85 µM |
| CCOc1ccc(-c2nnc(SCC(=O)Nc3cccc(OC)c3)nc2-c2ccc(OCC)cc2)cc1 | inactive |
| Fc1ccc(-c2nc(Nc3cccc(C(F)(F)F)c3)nc3c2COc2ccccc2-3)cc1 | inconclusive: 18.5 µM [falling, single point] |
| Cc1ccc(NC(=O)Cc2coc3ccc(C(C)C)cc23)cc1Cl | inactive |
| CCOc1ccc(CN2C(=O)c3ccccc3Sc3ccc(C(=O)O)cc32)cc1 | inactive |
| O=C(NCCc1ccc(Cl)cc1)C(=O)NCC(c1ccco1)S(=O)(=O)c1ccc(Cl)cc1 (centres undefined) | inconclusive: 0.585 µM [falling, full curve, poor fit] |
| COc1ccc2c(c1)CC(C(=O)Nc1cc(Cl)ccc1C)CO2 (centres undefined) | inactive |
| N#Cc1c(N)n(-c2cccc(Cl)c2)c2nc3ccccc3nc12 | inconclusive: 13.1 µM [falling, partial curve, poor fit] |
| Clc1ccc(C(c2ccccc2)c2c[nH]c3ccccc23)s1 (centres undefined) | inconclusive: 23.3 µM [falling, single point] |
| COc1ccc(S(=O)(=O)c2c(C(=O)c3ccc(C)c(C)c3)cnc3ccc(F)cc23)cc1 | inconclusive: 3.69 µM [falling, full curve] |
| COc1ccccc1CNS(=O)(=O)c1ccc(-c2cnc(C3CC3)o2)cc1 | inactive |
| COc1cc(C2c3c(-c4ccccc4O)n[nH]c3C(=O)N2Cc2ccco2)ccc1OCC(C)C (centres undefined) | inconclusive: 23.3 µM [falling, single point] |
| Cc1ccc2nc(Cl)c3cc(C(=O)NCCCN(C)Cc4ccccc4)sc3c2c1 | inconclusive: 5.21 µM [falling, partial curve, poor fit] |
| Cc1ccc(N2CCN(C(=O)c3cnn(-c4ccc(C)c(C)c4)c3C3CCNCC3)CC2)c(C)c1 | inconclusive: 26.1 µM [falling, single point] |
| Cc1ccc(S(=O)(=O)C(CNS(=O)(=O)c2ccc(F)c(C(F)(F)F)c2)c2ccco2)cc1 (centres undefined) | inconclusive: 4.65 µM [falling, single point] |

| Structure (SMILES) | Potency |
| --- | --- |
| CCCC1=Nc2cc(C(=O)NCCOC)ccc2Sc2ccccc21 | inactive |
| O=C(NCCN1CCN(c2ccccc2)CC1)Nc1cccc(Br)c1 | inconclusive: 20.7 µM [falling, single point] |
| CCC(C)NC(=O)CSc1nc2cc3c(cc2c(=O)n1CCCC(=O)NCCc1ccc(OC)c(OC)c1)OCO3 (centres undefined) | inactive |
| Cc1ccccc1OCCCCn1c(-c2ccc(Cl)cc2)nc2ccccc2c1=O | inconclusive: 23.3 µM [falling, single point] |
| COc1ccc(-c2nc3cc(C(C)C)ccc3o2)cc1NC(=O)c1ccccc1[N+](=O)[O-] | inactive |
| CCOc1ccccc1CNC(=O)CCn1c(=O)c2cccn2c2ccc(F)cc21 | inactive |
| CC(C)Cc1ccc(S(=O)(=O)N2CCC(c3ccncc3)CC2)cc1 | inconclusive: 23.3 µM [falling, single point] |
| COc1ccccc1C(=O)Nc1c(C(=O)N(CCN(C)C)Cc2ccco2)oc2ccccc12 | inconclusive: 26.1 µM [falling, single point] |
| CCOc1ccc(NC(=O)N2CC=C(c3c[nH]c4ccccc34)CC2)cc1 | inconclusive: 8.26 µM [falling, partial curve] |
| COc1cc(OC)c(NC(=O)CCCn2nc(C)c3sc4ccccc4c3c2=O)cc1Cl | inconclusive: 0.464 µM [falling, partial curve] |
| CCc1nn(CC(=O)NCc2ccccc2)c(=O)c2cccn12 | inconclusive: 5.21 µM [falling, full curve] |
| COc1ccc(CCNC(=O)c2ccc(Cn3c(=O)c4cccn4c4cccnc43)cc2)cc1OC | inconclusive: 26.1 µM [falling, single point] |
| CCC1CN(C(=O)NCc2cccc(OC)c2)c2cc(Cl)ccc2O1 (centres undefined) | inactive |
| CCCCC1CCC(C(=O)N2CC(=O)Nc3ccc(F)cc3C2c2ccc(F)cc2)CC1 (centres undefined) | active: 16.5 µM |
| Cc1ccc(CS(=O)(=O)c2ncc(Cl)c(C(=O)Nc3nnc(C(C)C)s3)n2)cc1 | inconclusive: 11.7 µM [falling, partial curve, poor fit] |
| CCOc1ccc(/C=C/C(=O)Nc2ccc3nc(N(CC)CC)cc(C)c3c2)cc1OC | inconclusive: 3.29 µM [falling, full curve, poor fit] |
| CCOc1ccc(-c2nonc2NC(=O)c2oc3ccc(CC)cc3c2C)cc1 | inactive |
| COc1ccc(CCNC(=O)C(C)n2nc(C)c3sc4ccccc4c3c2=O)c(OC)c1 (centres undefined) | active: 4.65 µM |
| CSc1ccc(CCNC(=O)CCCn2c(=O)c3cccn3c3ccccc32)cc1 | inconclusive: 14.7 µM [falling, single point] |
| O=C1c2[nH]nc(-c3ccc(F)cc3)c2C(c2ccccc2F)N1c1ccccc1 (centres undefined) | inconclusive: 0.656 µM [activator, full curve, poor fit] |
| COc1cccc(NC(=O)C2CCC(CNS(=O)(=O)c3csc(C(N)=O)c3)CC2)c1 (centres undefined) | inactive |
| O=C(Nc1ccc(Br)cc1)c1cc(S(=O)(=O)NC2CCCC2)ccc1F | inactive |

2 neighbouring entries from above, quoted:

| Structure (SMILES) | Potency |
| --- | --- |
| O=C(NCCc1ccc(Cl)cc1)C(=O)NCC(c1ccco1)S(=O)(=O)c1ccc(Cl)cc1 (centres undefined) | inconclusive: 0.585 µM [falling, full curve, poor fit] |
| COc1ccc2c(c1)CC(C(=O)Nc1cc(Cl)ccc1C)CO2 (centres undefined) | inactive |

— PubChem BioAssay AID504465 (National Center for Advancing Translational Sciences (NCATS), 2011)
